Source: PubChem BioAssay AID1347076 (National Center for Advancing Translational Sciences (NCATS), 2019)
“And” between values parts separate entries of the source, which are not always exact repeats. Identical values can stand only once. The campaign covered roughly 400,000 compounds. About 13,000 (3.2%) were called active. Inconclusive means that the source gave no clear call. Such entries were picked first, then a sample of the others. The call rests on the fitted dose curve; in most records, active means well fitted cell-killing curve with a large enough effect; inconclusive means small, poorly fitted or top-dose-only effect, or effect the other way; inactive means flat fitted curve, though single readings scatter. Potencies of inconclusive entries are doubtful fits and often do not repeat.

Assay: qHTS assay for MDR1-selective chemotherapeutics: Primary screen using the drug-selected MDR subline cells KB-V1; further: nearly all actives have a fitted effect of over 60% in size
Details: KB-V1 MDR cells viability, CellTiter-Glo, 72 h; activity change, negative = cytotoxicity: at 46.1 µM (top of the series)
How it was run: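 Following 72 h at 37 degrees C with compound, KB-V1 cell viability was read by CellTiter-Glo luminescence, medium being phenol-red-free DMEM plus 10% FBS; concentration-response parameters came from normalized, curve-fitted qHTS data.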
On the % scale 0 is the no-effect control and ±100 the full control effect; potency means the concentration at half of the fitted maximal effect.

For `COc1ccnc2c1c(=O)n(Cc1c(F)cccc1Cl)c(=O)n2C`, which Potency is on record?
The Potency was inconclusive: 23.1 µM [rising, partial curve, poor fit].

With `Cc1cccc(-n2cc(CNCCc3nc(C)cc(C)n3)c(-c3cccc(F)c3)n2)c1` as the molecule, how does the “activity change, negative = cytotoxicity” value read?
Its value is inactive: -6.36%.

With `CON(C)c1nc(OCCNC(=O)OCc2ccc(Cl)cc2Cl)nc(N(C)C)n1` as the molecule, how does the Potency read?
The Potency was inconclusive: 25.9 µM [cytotoxic, partial curve, poor fit].

With `CCCCOC(=O)c1ccc(N2C(=O)CC(N3CCN(C/C=C/c4ccccc4)CC3)C2=O)cc1` (stereo unspecified) as the molecule, how does the Potency read?
The Potency was inconclusive: 18.4 µM [cytotoxic, partial curve, poor fit].

For `Cc1ccc(NC(=O)CN(C)S(=O)(=O)c2cccs2)cc1C`, which Potency is on record?
The Potency was inconclusive: 29.1 µM [cytotoxic, single point].

For `CCOC(=O)Nc1sc(C)c(C)c1C(=O)OCC`, which Potency is on record?
Its Potency is inconclusive: 20.6 µM [rising, single point].

For `COc1nc(N)c(C#N)c(-c2ccc(N(C)CCC#N)cc2)c1C#N`, which Potency is on record?
Its Potency is inconclusive: 18.4 µM [cytotoxic, single point].

With `Cc1cccc(C)c1NC(=O)C1(C)CCC(=O)N1C1CC1` (stereo unspecified) as the molecule, how does the Potency read?
The Potency was inconclusive: 32.6 µM [rising, partial curve, poor fit].

Which Potency does the source give for `COc1ccc(NC(=O)Nc2ccc3c(c2)C(=O)N([C@H](C)CO)C[C@H](C)[C@@H](CN(C)C(=O)Nc2ccc(C(F)(F)F)cc2)O3)cc1` here?
The Potency was inconclusive: 29.1 µM [cytotoxic, single point].

Which Potency does the source give for `Cc1cccc2cc(CN(CC3CCCO3)C(=S)Nc3ccccc3)c(=O)[nH]c12` (stereo unspecified) here?
Its Potency is active: 3.66 µM.

Which Potency does the source give for `O=C(COC(=O)C1CCCO1)Nc1cccc(C(F)(F)F)c1` (stereo unspecified) here?
Its Potency is inconclusive: 32.6 µM [cytotoxic, single point].

Which Potency does the source give for `CN(C)c1cc(-c2ccc(Br)cc2)oc(=O)c1Cl` here?
Its Potency is inconclusive: 16.4 µM [cytotoxic, single point].

For `Cc1c(Cl)cnc(NC(=O)COC(=O)[C@H](C)NC(=O)c2ccccc2)c1Cl`, which “activity change, negative = cytotoxicity” value is on record?
Its value is inactive: 1.96%.

For `CCN1CCN(c2cc(C)c3cc(NC(=O)c4cccnc4Cl)ccc3n2)CC1`, which Potency is on record?
The Potency was inconclusive: 16.4 µM [cytotoxic, single point].

For `CCOC(=O)c1[nH]c(C)c(C(=O)Nc2ccc(C)c(C)c2)c1C`, which Potency is on record?
Its Potency is inconclusive: 29.1 µM [cytotoxic, single point].

For `Cc1ccc(NC(=O)c2nc[nH]c2C(=O)N[C@@H](C)c2ccccc2)cc1`, which Potency is on record?
The Potency was inconclusive: 18.4 µM [cytotoxic, single point].

With `CC(Oc1ccc(-c2ccccc2)c(F)c1)c1ccn(S(=O)(=O)c2ccc(F)cc2)n1` (stereo unspecified) as the molecule, how does the Potency read?
The Potency was inconclusive: 23.1 µM [cytotoxic, single point].

For `CCc1ccc2nc(SCC(=O)N3CCCCC3)c(C#N)cc2c1`, which Potency is on record?
Its Potency is inconclusive: 29.1 µM [cytotoxic, single point].

For `Cc1cc(C)cc(N(CC(=O)Nc2ccccc2-c2ccccc2)S(=O)(=O)c2ccccc2)c1`, which “activity change, negative = cytotoxicity” value is on record?
The value was inactive: -10.2%.

For `S=c1[nH]cc(-c2ccccc2)n1-c1ccccc1Cl`, which Potency is on record?
The Potency was active: 13 µM.

With `Cc1ccc(CNC(=S)NCc2ccncc2)cc1` as the molecule, how does the Potency read?
The Potency was inconclusive: 20.6 µM [cytotoxic, single point].

For `Cc1ccc(OCCC(=O)NNC(=O)c2ccccc2F)cc1`, which “activity change, negative = cytotoxicity” value is on record?
The value was inactive: 0%.

Which “activity change, negative = cytotoxicity” value does the source give for `COc1cc(OC)cc(C(=O)Nn2cc(C(=O)N3CCN(C)CC3)c3ccccc3c2=O)c1` here?
Its value is inactive: 5.2%.

Which Potency does the source give for `O=C(CN(Cc1ccccc1)S(=O)(=O)c1ccccc1)NC1CC1` here?
Its Potency is inconclusive: 16.4 µM [cytotoxic, single point].

Which Potency does the source give for `CCC(C)NC(=O)C1c2ccccc2C(=O)N1Cc1cc(OC)ccc1OC` (stereo unspecified) here?
Its Potency is active: 7.31 µM.

Which Potency does the source give for `CC(=O)c1c(C(C)=O)c(C)n(Cc2ccccc2)c1C` here?
Its Potency is active: 20.6 µM.

For `CC(C)CNC(=O)CC(c1ccccc1)c1ccccc1`, which “activity change, negative = cytotoxicity” value is on record?
The value was inactive: -23.1%.

With `ON/C=N/C(=S)Nc1ncc(C(F)(F)F)cc1Cl` as the molecule, how does the Potency read?
Its Potency is inconclusive: 29.1 µM [rising, single point].

Which Potency does the source give for `CCOC(=O)C1CCN(C(=O)CC(NS(=O)(=O)c2ccc(OC)cc2)C(C)C)CC1` (stereo unspecified) here?
The Potency was inconclusive: 23.1 µM [cytotoxic, partial curve, poor fit].

For `CS(=O)(=O)c1ccc2nc(NC(=O)c3cccs3)sc2c1`, which Potency is on record?
The Potency was inconclusive: 3.66 µM [cytotoxic, full curve].

Which Potency does the source give for `CCOC(=O)C1=C(CC)Nc2ccccc2N=C1NC(=O)c1ccc(S(=O)(=O)N(C)C)cc1` here?
Its Potency is inconclusive: 14.6 µM [cytotoxic, single point].

Which Potency does the source give for `O=C(CCCSc1nc2ccccc2c(=O)[nH]1)c1ccc(F)cc1` here?
The Potency was inconclusive: 29.1 µM [cytotoxic, single point].

For `COc1ccc(N2CCN(C(=O)CCNS(=O)(=O)c3ccc(Br)s3)CC2)cc1`, which Potency is on record?
Its Potency is active: 13 µM.

For `COc1cc([C@@H]2c3cc4c(cc3[C@H](O)[C@H]3COC(=O)[C@H]23)OCO4)cc(OC)c1OC`, which Potency is on record?
The Potency was active: 184 nM and active: 259 nM.

Which Potency does the source give for `CC1CCN(C(C(=O)NC2CCCCC2)c2cc3c(cc2[N+](=O)[O-])OCO3)CC1` (stereo unspecified) here?
The Potency was inconclusive: 23.1 µM [cytotoxic, partial curve, poor fit].

With `CCN(CC)S(=O)(=O)c1ccc(C)c(NC(=O)/C=C/c2cccs2)c1` as the molecule, how does the Potency read?
Its Potency is active: 8.2 µM.

Which “activity change, negative = cytotoxicity” value does the source give for `COc1ccc(Cl)cc1CNC[C@H]1O[C@@H](n2cnc3c(=O)[nH]c(N)nc32)[C@H](O)[C@@H]1O` here?
Its value is inactive: -19.6%.

With `COc1ccc(CCNC(=O)Cn2nnc(-c3ccccc3F)n2)cc1OC` as the molecule, how does the Potency read?
The Potency was inconclusive: 18.4 µM [cytotoxic, partial curve].

For `c1ccc(-c2noc(C3CCC3)n2)nc1`, which Potency is on record?
Its Potency is inconclusive: 29.1 µM [rising, single point].

With `CCCCn1c(N)c(N(CCOC)C(=O)c2ccc(Br)o2)c(=O)[nH]c1=O` as the molecule, how does the Potency read?
The Potency was inconclusive: 9.2 µM [rising, partial curve, poor fit].

With `CC(=O)Nc1cc(-c2cccnc2)cn2c(-c3ccc(F)cc3)cnc12` as the molecule, how does the “activity change, negative = cytotoxicity” value read?
Its value is inactive: 5.21%.

With `O=c1c2ccccc2nnn1-c1ccc(Br)cc1` as the molecule, how does the “activity change, negative = cytotoxicity” value read?
Its value is inactive: -2.16%.

With `Cc1ccc(NC(=O)CNC(=O)c2ccco2)nc1` as the molecule, how does the Potency read?
Its Potency is inconclusive: 5.8 µM [rising, partial curve].

With `O=C(Nc1nc(-c2ccco2)cs1)c1ccccc1` as the molecule, how does the “activity change, negative = cytotoxicity” value read?
The value was inactive: -2.32%.

For `C/C(=N\NC(N)=O)c1ccc(Cl)s1`, which Potency is on record?
The Potency was inconclusive: 20.6 µM [cytotoxic, single point].

Which Potency does the source give for `CCOc1ccc(N(CC(=O)Nc2ccccc2OCC)S(=O)(=O)c2c(C)noc2C)cc1` here?
The Potency was active: 5.8 µM.

Which “activity change, negative = cytotoxicity” value does the source give for `CCOC(=O)C1(C)CCCN1C(=O)c1cccs1` (stereo unspecified) here?
Its value is inactive: 3.14%.

With `COc1cc(/C=C/C(=O)Nc2cccc(S(=O)(=O)N3CCOCC3)c2)ccc1OCC#N` as the molecule, how does the “activity change, negative = cytotoxicity” value read?
The value was inactive: 0%.

With `Cc1ccc(/C=C2/CNC/C(=C/c3ccc(C)cc3)C2=O)cc1` as the molecule, how does the Potency read?
Its Potency is active: 4.11 µM.

With `CN(C(=O)c1ccccc1C(=O)OCC(=O)c1ccc(F)c(F)c1)C1CCCCC1` as the molecule, how does the Potency read?
The Potency was inconclusive: 16.4 µM [cytotoxic, partial curve, poor fit].

Which “activity change, negative = cytotoxicity” value does the source give for `COc1ccccc1N1CCN(C(=O)C(C)CS(=O)(=O)c2ccc3c(c2)NC(=O)CS3)CC1` (stereo unspecified) here?
The value was inactive: 0.362%.

For `CCOC(=O)c1c(NCc2ccc3c(c2)OCO3)c2ccccc2[nH]c1=O`, which Potency is on record?
The Potency was inconclusive: 29.1 µM [cytotoxic, single point].

With `CCC(/C=N/NC(=O)c1ccccc1F)CC` as the molecule, how does the “activity change, negative = cytotoxicity” value read?
Its value is inactive: 6.81%.

For `O=S(=O)(Cc1ccccc1)CS(=O)(=O)Cc1ccccc1`, which “activity change, negative = cytotoxicity” value is on record?
Its value is inactive: 5.4%.

For `COc1ccccc1NC(=O)CCSc1nnc(-c2ccncc2)o1`, which Potency is on record?
Its Potency is inconclusive: 29.1 µM [cytotoxic, partial curve, poor fit].

Which “activity change, negative = cytotoxicity” value does the source give for `CC1(Cc2ccccc2Cl)C(=O)Nc2cc(-c3ccccc3Cl)ccc21` (stereo unspecified) here?
Its value is inactive: -18.9%.

For `c1ccc(CSc2snnc2-c2ccccc2)cc1`, which Potency is on record?
The Potency was inconclusive: 20.6 µM [cytotoxic, single point].

For `Cc1ccc(Nc2nc(NCc3ccco3)nc3nccnc23)c(C)c1`, which “activity change, negative = cytotoxicity” value is on record?
Its value is inactive: 0%.

With `Cc1nc(C(F)(F)F)ccc1C(=O)N1CCCCC1` as the molecule, how does the “activity change, negative = cytotoxicity” value read?
The value was inactive: -1.73%.

Which “activity change, negative = cytotoxicity” value does the source give for `CCN1C(=O)[C@@H]2[C@@H](c3ccc(-c4ccc(C(C)=O)cc4)cc3)N3CCCC[C@@]3(C(=O)OC)[C@@H]2C1=O` here?
Its value is inactive: -2.66%.

For `Cc1ccc(-n2nnnc2-c2ccco2)cc1`, which Potency is on record?
Its Potency is inconclusive: 29.1 µM [rising, single point].

Which Potency does the source give for `COC(=O)[C@@]12C[C@@H](CC(=O)NCC34CC5CC(CC(C5)C3)C4)C(=O)N(Cc3ccccc3)C1=CCC(C)(C)C2` here?
The Potency was active: 23.1 µM.

Which “activity change, negative = cytotoxicity” value does the source give for `CCN(CC)CCNc1oc(-c2ccccc2)nc1S(=O)(=O)c1ccccc1` here?
Its value is inactive: 6.03%.

With `CCOC(=O)c1cc2sc(C)cc2n1CC(=O)NCCc1ccccc1` as the molecule, how does the Potency read?
The Potency was inconclusive: 9.2 µM [cytotoxic, partial curve].

Which Potency does the source give for `CCc1nnc(NC(=O)CCC(=O)N2CCN(c3cc(Cl)ccc3C)CC2)s1` here?
The Potency was inconclusive: 5.8 µM [cytotoxic, full curve, poor fit].

For `Cc1ccc(NC(=O)N2CCc3ccccc32)cc1`, which Potency is on record?
The Potency was inconclusive: 25.9 µM [cytotoxic, partial curve, poor fit].

With `COCCNC(=S)N/N=C(\C)c1cccc(OC)c1` as the molecule, how does the “activity change, negative = cytotoxicity” value read?
The value was inactive: -1.62%.

With `COc1cc2c(cc1NC(=O)c1ccc(C(C)(C)C)cc1)CCCC2` as the molecule, how does the Potency read?
Its Potency is inconclusive: 23.1 µM [cytotoxic, single point].

For `CCCCNc1nc(-c2ccccc2)cc(C(F)(F)F)c1C(N)=O`, which Potency is on record?
The Potency was inconclusive: 16.4 µM [cytotoxic, single point].

With `CC(C)CCNC(=O)COc1cccc2c1OC(C)(C)C2` as the molecule, how does the Potency read?
Its Potency is inconclusive: 29.1 µM [cytotoxic, single point].

For `COc1cc(OC)c2c(-c3cccc(-c4ccc(C#N)cc4)c3)cc(=O)oc2c1`, which Potency is on record?
The Potency was inconclusive: 3.66 µM [cytotoxic, partial curve, poor fit].
